Here are results for three molecules from doi:10.1101/2021.01.05.425376.

Holding throughout (assay): co-IP
The target in one experiment is T1, Nur1^3HA (S. cerevisiae) (UniProt Q12066).
T1 sequence: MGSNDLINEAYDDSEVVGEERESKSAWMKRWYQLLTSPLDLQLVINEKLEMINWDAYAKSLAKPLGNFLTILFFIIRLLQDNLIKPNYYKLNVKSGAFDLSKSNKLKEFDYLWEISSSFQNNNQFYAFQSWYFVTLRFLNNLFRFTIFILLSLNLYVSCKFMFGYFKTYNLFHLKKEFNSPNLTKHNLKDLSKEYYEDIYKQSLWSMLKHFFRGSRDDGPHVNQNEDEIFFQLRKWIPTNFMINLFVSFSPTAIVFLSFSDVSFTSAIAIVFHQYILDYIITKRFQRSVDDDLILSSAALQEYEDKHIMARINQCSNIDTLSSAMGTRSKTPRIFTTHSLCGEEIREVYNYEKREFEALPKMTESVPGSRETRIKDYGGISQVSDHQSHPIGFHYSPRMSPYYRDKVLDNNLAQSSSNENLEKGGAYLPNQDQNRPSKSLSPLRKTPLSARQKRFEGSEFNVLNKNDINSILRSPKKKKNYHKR

In a further experiment the target is T2, Lrs4^TAP (S. cerevisiae) (UniProt Q04087).
T2 sequence: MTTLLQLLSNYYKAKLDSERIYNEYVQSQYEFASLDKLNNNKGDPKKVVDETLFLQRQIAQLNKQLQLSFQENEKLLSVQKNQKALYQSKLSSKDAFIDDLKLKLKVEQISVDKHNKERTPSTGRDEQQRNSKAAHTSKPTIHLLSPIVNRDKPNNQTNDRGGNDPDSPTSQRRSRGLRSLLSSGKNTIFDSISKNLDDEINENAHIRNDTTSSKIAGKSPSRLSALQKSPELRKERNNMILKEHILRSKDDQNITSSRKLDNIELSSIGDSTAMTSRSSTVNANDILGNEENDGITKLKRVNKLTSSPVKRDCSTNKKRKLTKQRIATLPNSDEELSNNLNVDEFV

In the next experiment the target is T3, Lrs4^3HA (S. cerevisiae) (UniProt Q04087).
T3 sequence: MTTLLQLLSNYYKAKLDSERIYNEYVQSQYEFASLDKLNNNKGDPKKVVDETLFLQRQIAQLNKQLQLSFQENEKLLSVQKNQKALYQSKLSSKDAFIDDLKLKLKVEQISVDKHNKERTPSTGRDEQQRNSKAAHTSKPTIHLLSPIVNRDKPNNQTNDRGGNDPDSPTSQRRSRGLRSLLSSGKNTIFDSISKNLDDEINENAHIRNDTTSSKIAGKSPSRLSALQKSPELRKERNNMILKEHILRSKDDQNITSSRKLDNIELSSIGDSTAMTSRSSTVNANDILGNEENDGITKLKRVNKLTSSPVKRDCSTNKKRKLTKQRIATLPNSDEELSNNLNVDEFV

For the next experiment, the target named is T4, Heh1^GFP (S. cerevisiae) (UniProt Q03707).
T4 sequence: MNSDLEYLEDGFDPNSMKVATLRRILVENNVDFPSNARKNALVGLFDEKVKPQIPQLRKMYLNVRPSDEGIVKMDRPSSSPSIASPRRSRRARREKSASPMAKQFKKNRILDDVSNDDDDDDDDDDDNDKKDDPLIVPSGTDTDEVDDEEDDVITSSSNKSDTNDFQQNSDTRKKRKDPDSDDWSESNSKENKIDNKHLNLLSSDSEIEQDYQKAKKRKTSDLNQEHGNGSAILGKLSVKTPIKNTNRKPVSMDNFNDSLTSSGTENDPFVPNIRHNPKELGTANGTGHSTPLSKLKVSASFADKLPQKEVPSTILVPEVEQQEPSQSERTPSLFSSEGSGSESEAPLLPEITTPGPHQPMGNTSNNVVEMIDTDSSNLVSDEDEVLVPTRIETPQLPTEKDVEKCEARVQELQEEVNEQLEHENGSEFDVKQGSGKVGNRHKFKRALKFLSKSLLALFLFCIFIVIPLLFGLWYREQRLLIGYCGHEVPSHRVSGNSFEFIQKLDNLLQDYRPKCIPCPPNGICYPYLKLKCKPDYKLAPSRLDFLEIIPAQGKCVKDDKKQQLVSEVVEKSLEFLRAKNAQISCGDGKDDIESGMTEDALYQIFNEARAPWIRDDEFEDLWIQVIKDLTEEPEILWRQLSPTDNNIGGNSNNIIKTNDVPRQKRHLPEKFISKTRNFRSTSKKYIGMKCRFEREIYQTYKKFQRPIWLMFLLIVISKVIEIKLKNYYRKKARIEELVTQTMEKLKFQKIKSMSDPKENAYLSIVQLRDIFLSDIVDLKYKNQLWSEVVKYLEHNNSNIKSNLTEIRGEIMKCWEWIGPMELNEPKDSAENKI

Results are given in words; binding and its absence hold for the method and conditions named. Binding seen in cells or lysates may run through a third protein. Some results given as binding are weak or reduced against the parent protein; the word gives no strength. Sequences can lack the tags named with a protein.

B1: Heh1^GFP (protein, UniProt Q03707 1-834)
chain: MNSDLEYLEDGFDPNSMKVATLRRILVENNVDFPSNARKNALVGLFDEKVKPQIPQLRKMYLNVRPSDEGIVKMDRPSSSPSIASPRRSRRARREKSASPMAKQFKKNRILDDVSNDDDDDDDDDDDNDKKDDPLIVPSGTDTDEVDDEEDDVITSSSNKSDTNDFQQNSDTRKKRKDPDSDDWSESNSKENKIDNKHLNLLSSDSEIEQDYQKAKKRKTSDLNQEHGNGSAILGKLSVKTPIKNTNRKPVSMDNFNDSLTSSGTENDPFVPNIRHNPKELGTANGTGHSTPLSKLKVSASFADKLPQKEVPSTILVPEVEQQEPSQSERTPSLFSSEGSGSESEAPLLPEITTPGPHQPMGNTSNNVVEMIDTDSSNLVSDEDEVLVPTRIETPQLPTEKDVEKCEARVQELQEEVNEQLEHENGSEFDVKQGSGKVGNRHKFKRALKFLSKSLLALFLFCIFIVIPLLFGLWYREQRLLIGYCGHEVPSHRVSGNSFEFIQKLDNLLQDYRPKCIPCPPNGICYPYLKLKCKPDYKLAPSRLDFLEIIPAQGKCVKDDKKQQLVSEVVEKSLEFLRAKNAQISCGDGKDDIESGMTEDALYQIFNEARAPWIRDDEFEDLWIQVIKDLTEEPEILWRQLSPTDNNIGGNSNNIIKTNDVPRQKRHLPEKFISKTRNFRSTSKKYIGMKCRFEREIYQTYKKFQRPIWLMFLLIVISKVIEIKLKNYYRKKARIEELVTQTMEKLKFQKIKSMSDPKENAYLSIVQLRDIFLSDIVDLKYKNQLWSEVVKYLEHNNSNIKSNLTEIRGEIMKCWEWIGPMELNEPKDSAENKI
As for B1, the binding entry with Nur1^3HA (S. cerevisiae) and with Lrs4^TAP (S. cerevisiae) was “binds” in each case.

B2: ^GFPHeh1 (long splice form Heh1) (protein, UniProt Q03707 1-834)
chain: MNSDLEYLEDGFDPNSMKVATLRRILVENNVDFPSNARKNALVGLFDEKVKPQIPQLRKMYLNVRPSDEGIVKMDRPSSSPSIASPRRSRRARREKSASPMAKQFKKNRILDDVSNDDDDDDDDDDDNDKKDDPLIVPSGTDTDEVDDEEDDVITSSSNKSDTNDFQQNSDTRKKRKDPDSDDWSESNSKENKIDNKHLNLLSSDSEIEQDYQKAKKRKTSDLNQEHGNGSAILGKLSVKTPIKNTNRKPVSMDNFNDSLTSSGTENDPFVPNIRHNPKELGTANGTGHSTPLSKLKVSASFADKLPQKEVPSTILVPEVEQQEPSQSERTPSLFSSEGSGSESEAPLLPEITTPGPHQPMGNTSNNVVEMIDTDSSNLVSDEDEVLVPTRIETPQLPTEKDVEKCEARVQELQEEVNEQLEHENGSEFDVKQGSGKVGNRHKFKRALKFLSKSLLALFLFCIFIVIPLLFGLWYREQRLLIGYCGHEVPSHRVSGNSFEFIQKLDNLLQDYRPKCIPCPPNGICYPYLKLKCKPDYKLAPSRLDFLEIIPAQGKCVKDDKKQQLVSEVVEKSLEFLRAKNAQISCGDGKDDIESGMTEDALYQIFNEARAPWIRDDEFEDLWIQVIKDLTEEPEILWRQLSPTDNNIGGNSNNIIKTNDVPRQKRHLPEKFISKTRNFRSTSKKYIGMKCRFEREIYQTYKKFQRPIWLMFLLIVISKVIEIKLKNYYRKKARIEELVTQTMEKLKFQKIKSMSDPKENAYLSIVQLRDIFLSDIVDLKYKNQLWSEVVKYLEHNNSNIKSNLTEIRGEIMKCWEWIGPMELNEPKDSAENKI
For the molecule B2, in the experiment with Lrs4^3HA (S. cerevisiae), the binding result was “binds”.

B3: Nur1^3HA (protein, UniProt Q12066 1-484)
chain: MGSNDLINEAYDDSEVVGEERESKSAWMKRWYQLLTSPLDLQLVINEKLEMINWDAYAKSLAKPLGNFLTILFFIIRLLQDNLIKPNYYKLNVKSGAFDLSKSNKLKEFDYLWEISSSFQNNNQFYAFQSWYFVTLRFLNNLFRFTIFILLSLNLYVSCKFMFGYFKTYNLFHLKKEFNSPNLTKHNLKDLSKEYYEDIYKQSLWSMLKHFFRGSRDDGPHVNQNEDEIFFQLRKWIPTNFMINLFVSFSPTAIVFLSFSDVSFTSAIAIVFHQYILDYIITKRFQRSVDDDLILSSAALQEYEDKHIMARINQCSNIDTLSSAMGTRSKTPRIFTTHSLCGEEIREVYNYEKREFEALPKMTESVPGSRETRIKDYGGISQVSDHQSHPIGFHYSPRMSPYYRDKVLDNNLAQSSSNENLEKGGAYLPNQDQNRPSKSLSPLRKTPLSARQKRFEGSEFNVLNKNDINSILRSPKKKKNYHKR
As for B3, the binding entry with Heh1^GFP (S. cerevisiae) is “binds”.
